Drawing on the supplement of paper PMC12819154, “High-throughput peptide-centric local stability assay extends protein–ligand identification to membrane proteins, tissues and bacteria” (Nature Structural & Molecular Biology, 2025), this text covers log2 fold change for 25 targets.

Sequences of proteins named here, by UniProt entry; tags and fusion partners are left off. A change or cut given only in a name is not applied to a line headed by its entry.
UniProt P49757: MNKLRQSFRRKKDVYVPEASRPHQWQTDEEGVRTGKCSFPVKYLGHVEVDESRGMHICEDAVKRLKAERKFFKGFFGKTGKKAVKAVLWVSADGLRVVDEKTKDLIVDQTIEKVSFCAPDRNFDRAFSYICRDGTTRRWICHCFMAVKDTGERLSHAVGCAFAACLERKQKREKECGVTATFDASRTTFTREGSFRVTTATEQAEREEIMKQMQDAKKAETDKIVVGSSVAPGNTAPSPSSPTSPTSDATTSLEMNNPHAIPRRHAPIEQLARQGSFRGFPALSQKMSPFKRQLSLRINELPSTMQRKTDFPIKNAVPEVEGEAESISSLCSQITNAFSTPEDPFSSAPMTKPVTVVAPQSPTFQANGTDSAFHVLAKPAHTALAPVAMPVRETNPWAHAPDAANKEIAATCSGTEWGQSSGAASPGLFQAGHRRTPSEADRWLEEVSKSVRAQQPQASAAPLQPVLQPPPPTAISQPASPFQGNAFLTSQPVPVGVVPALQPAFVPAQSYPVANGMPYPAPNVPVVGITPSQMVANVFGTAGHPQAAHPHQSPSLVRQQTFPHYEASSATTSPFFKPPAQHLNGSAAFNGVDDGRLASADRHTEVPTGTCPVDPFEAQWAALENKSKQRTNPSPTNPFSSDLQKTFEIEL
UniProt P50548: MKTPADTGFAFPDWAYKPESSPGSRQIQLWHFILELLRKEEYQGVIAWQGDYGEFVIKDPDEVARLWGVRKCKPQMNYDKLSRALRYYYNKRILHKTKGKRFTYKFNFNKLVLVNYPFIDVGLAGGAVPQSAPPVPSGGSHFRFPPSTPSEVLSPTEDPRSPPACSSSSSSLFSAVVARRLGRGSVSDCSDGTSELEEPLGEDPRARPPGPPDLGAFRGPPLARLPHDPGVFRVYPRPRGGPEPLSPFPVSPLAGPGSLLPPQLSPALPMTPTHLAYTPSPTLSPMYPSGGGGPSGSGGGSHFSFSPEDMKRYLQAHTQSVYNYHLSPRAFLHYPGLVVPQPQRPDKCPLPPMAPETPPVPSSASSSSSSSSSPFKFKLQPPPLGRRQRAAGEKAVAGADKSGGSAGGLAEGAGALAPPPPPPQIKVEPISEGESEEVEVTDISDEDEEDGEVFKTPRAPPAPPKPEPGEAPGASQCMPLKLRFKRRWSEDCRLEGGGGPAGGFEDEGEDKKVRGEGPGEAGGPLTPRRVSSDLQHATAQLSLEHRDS
UniProt P46821: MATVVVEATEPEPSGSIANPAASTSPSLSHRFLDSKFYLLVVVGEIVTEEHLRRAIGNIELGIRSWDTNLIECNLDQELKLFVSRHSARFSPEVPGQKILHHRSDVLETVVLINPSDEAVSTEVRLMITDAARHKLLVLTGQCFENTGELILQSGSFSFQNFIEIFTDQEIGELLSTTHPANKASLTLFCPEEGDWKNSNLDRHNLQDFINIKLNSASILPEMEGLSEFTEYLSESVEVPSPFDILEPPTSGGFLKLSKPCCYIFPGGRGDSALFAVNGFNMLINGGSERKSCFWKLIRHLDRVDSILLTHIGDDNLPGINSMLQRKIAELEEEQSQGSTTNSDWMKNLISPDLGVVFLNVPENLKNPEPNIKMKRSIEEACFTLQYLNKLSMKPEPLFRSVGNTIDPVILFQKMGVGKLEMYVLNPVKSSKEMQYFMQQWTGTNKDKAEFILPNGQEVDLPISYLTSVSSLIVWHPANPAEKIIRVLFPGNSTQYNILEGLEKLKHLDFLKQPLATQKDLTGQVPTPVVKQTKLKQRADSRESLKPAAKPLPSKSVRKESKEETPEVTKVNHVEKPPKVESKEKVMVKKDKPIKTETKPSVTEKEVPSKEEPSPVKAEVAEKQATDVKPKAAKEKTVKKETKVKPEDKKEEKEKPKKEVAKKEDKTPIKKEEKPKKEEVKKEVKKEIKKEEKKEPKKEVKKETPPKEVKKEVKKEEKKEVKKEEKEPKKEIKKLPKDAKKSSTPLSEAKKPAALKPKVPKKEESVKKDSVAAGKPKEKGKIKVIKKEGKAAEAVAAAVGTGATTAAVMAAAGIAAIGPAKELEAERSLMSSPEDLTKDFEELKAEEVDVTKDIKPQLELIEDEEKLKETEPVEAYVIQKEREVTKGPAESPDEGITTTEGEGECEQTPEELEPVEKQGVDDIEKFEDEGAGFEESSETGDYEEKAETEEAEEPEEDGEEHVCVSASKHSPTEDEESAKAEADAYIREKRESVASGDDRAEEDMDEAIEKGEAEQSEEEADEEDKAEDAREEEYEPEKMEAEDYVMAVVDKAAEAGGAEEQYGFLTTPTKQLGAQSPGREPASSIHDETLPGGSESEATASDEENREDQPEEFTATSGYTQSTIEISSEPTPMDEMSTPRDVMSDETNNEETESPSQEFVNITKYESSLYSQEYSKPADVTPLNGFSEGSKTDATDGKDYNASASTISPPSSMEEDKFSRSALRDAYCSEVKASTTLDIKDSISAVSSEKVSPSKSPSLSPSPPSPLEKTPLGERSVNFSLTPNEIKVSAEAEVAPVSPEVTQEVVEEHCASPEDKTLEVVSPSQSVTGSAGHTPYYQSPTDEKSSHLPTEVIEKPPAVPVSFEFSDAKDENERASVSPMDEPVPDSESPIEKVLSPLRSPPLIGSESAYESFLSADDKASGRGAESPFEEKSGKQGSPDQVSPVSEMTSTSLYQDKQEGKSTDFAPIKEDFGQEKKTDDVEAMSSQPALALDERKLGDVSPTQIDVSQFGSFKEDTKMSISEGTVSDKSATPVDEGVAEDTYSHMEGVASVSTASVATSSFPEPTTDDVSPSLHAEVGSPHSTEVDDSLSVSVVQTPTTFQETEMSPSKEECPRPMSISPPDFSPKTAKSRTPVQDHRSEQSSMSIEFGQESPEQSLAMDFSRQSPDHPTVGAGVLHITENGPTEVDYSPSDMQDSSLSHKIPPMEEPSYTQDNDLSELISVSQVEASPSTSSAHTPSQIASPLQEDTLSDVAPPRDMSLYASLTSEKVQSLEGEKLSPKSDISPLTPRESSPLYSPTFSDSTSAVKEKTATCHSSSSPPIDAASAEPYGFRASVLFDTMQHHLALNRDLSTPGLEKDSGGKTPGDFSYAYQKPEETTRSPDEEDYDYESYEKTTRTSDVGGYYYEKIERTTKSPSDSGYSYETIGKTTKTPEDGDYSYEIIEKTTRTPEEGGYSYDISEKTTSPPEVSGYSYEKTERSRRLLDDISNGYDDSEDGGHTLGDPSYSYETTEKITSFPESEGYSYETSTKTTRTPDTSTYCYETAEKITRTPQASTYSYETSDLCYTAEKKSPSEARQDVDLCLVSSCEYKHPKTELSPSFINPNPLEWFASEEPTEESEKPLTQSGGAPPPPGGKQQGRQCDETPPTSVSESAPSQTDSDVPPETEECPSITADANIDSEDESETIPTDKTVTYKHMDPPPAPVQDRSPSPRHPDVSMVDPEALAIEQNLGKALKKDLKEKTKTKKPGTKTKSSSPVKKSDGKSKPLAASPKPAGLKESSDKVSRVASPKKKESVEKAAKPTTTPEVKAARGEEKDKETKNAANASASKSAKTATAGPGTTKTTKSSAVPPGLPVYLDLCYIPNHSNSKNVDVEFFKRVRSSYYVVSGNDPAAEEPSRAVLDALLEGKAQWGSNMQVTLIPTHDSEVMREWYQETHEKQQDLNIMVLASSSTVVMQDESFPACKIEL
UniProt P49366: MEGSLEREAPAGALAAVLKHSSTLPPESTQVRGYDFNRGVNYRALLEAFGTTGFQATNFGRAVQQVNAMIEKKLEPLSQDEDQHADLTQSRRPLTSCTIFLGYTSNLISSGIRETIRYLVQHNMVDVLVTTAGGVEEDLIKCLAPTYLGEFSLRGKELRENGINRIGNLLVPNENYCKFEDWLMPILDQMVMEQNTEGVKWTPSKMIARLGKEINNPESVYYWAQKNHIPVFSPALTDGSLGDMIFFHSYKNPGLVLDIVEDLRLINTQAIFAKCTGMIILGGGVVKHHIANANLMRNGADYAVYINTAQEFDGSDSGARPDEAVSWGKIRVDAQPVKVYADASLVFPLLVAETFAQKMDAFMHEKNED
UniProt P51956: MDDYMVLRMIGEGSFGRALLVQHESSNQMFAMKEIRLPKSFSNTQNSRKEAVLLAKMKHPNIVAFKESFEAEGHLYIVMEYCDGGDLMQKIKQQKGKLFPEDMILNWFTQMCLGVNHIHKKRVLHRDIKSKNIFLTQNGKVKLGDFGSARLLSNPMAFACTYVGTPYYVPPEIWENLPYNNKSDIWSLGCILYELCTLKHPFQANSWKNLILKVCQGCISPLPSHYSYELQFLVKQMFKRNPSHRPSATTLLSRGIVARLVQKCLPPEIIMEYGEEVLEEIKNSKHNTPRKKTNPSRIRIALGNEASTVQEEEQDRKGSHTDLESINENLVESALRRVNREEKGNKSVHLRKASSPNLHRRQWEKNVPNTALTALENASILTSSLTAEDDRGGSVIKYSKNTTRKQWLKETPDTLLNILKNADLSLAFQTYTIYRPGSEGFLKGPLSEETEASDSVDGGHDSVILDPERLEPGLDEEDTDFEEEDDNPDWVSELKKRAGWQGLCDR
UniProt P53621: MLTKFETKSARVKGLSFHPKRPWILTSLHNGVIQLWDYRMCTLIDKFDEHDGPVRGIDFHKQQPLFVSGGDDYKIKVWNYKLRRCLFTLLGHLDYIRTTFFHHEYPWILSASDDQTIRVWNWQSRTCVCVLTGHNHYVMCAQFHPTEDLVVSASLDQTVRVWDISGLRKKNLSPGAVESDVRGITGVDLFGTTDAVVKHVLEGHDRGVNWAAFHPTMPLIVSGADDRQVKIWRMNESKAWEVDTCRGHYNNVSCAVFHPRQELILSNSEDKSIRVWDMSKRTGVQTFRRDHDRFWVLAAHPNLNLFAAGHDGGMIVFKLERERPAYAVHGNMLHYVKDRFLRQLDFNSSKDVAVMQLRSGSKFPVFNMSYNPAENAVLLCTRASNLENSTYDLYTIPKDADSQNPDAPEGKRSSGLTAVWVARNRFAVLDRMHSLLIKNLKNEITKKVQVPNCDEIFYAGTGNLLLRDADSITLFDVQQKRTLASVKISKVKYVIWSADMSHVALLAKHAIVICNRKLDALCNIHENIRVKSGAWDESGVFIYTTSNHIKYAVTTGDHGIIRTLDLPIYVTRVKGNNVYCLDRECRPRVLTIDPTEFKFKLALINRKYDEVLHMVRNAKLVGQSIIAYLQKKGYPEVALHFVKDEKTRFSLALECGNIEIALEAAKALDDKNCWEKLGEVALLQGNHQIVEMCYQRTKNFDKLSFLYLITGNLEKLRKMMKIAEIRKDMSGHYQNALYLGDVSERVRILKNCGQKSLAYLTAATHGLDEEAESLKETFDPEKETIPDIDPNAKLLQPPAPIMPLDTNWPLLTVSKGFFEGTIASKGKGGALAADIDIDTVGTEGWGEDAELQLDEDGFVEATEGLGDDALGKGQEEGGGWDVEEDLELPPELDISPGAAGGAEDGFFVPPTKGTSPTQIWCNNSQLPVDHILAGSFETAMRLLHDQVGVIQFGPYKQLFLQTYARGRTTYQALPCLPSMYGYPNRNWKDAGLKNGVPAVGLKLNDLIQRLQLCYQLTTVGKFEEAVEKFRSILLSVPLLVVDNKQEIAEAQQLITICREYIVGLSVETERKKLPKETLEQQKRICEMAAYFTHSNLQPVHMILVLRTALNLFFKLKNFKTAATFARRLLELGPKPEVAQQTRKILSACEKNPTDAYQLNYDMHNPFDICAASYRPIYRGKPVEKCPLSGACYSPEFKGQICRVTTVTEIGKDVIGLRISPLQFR
UniProt P51553: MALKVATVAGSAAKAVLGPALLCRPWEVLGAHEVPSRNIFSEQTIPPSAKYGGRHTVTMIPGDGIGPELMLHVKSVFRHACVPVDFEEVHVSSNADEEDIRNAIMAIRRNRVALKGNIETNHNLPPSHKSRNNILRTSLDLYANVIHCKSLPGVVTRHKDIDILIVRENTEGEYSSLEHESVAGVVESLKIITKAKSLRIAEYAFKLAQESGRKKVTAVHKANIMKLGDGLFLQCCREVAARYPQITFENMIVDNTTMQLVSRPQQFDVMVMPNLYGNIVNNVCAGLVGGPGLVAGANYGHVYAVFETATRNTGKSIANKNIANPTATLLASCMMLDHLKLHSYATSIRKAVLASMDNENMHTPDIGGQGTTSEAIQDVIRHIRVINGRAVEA
UniProt P51151: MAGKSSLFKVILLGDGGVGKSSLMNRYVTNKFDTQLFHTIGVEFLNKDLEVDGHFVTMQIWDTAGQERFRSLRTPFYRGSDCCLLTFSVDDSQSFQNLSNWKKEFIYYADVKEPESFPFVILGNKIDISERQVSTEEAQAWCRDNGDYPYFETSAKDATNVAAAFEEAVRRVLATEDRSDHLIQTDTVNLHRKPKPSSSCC
UniProt P53680: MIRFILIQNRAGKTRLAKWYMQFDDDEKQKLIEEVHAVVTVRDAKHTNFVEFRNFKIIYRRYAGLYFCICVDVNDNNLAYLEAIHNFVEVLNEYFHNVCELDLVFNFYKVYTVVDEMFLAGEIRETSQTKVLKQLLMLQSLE

This is one part of the list. Most values lie at the level of the controls, where differences are scatter.

Compound in the experiment: CN[C@@H]1C[C@H]2O[C@@](C)([C@@H]1OC)n1c3ccccc3c3c4c(c5c6ccccc6n2c5c31)C(=O)NC4 [staurosporine]
Briefly: log2 fold change of tryptic peptide abundance, ligand vs vehicle (limited proteolysis) (log2 ratio); higher = more trypsin-susceptible (destabilized). As to conditions: ligand concentration: 20 uM; sample: K562 cleared lysate; digestion: 4 min, 22 C (HT-PELSA RT4min, Orbitrap Astral).
With “UTRN (peptide sequence: HPQLDYVFTLAQNLK, peptide start residue: 2280) (UniProt P46939)”, the log2 fold change is -0.345.

For the target “RPL29 (peptide sequence: AQAAAPASVPAQAPK, peptide start residue: 135) (UniProt P47914)”, the log2 fold change was -0.2.

As to “NUMB (peptide sequence: ECGVTATFDASR, peptide start residue: 175) (UniProt P49757)”, the log2 fold change was -0.261.

Regarding “ERF (peptide sequence: VRGEGPGEAGGPLTPR, peptide start residue: 513) (UniProt P50548)”, the log2 fold change is -0.328.

“MAP1B (peptide sequence: ASTTLDIKDSISAVSSEK, peptide start residue: 1233) (UniProt P46821)”: the log2 fold change was -0.323.

Take “METAP1 (peptide sequence: LFHTAPNVPHYAK, peptide start residue: 299) (UniProt P53582)”: the log2 fold change was -0.201.

On to “PIP4K2A (peptide sequence: CHENSPR, peptide start residue: 343) (UniProt P48426)”, for which the log2 fold change was 0.21.

Consider “AIF1 (peptide sequence: YSSDEDLPSKLEGFKEK, peptide start residue: 37) (UniProt P55008)”, for which the log2 fold change was found to be 0.408.

As for “DHPS (peptide sequence: KLEPLSQDEDQHADLTQSR, peptide start residue: 73) (UniProt P49366)”, the log2 fold change came out at 0.662.

For “FASN (peptide sequence: DPETLVGYSMVGCQR, peptide start residue: 123) (UniProt P49327)”, the log2 fold change was -0.6.

In the case of “CNN1 (peptide sequence: GASQAGMTAPGTKR, peptide start residue: 213) (UniProt P51911)”, the log2 fold change turned out to be 0.316.

On to “NEK3 (peptide sequence: NPSHRPSATTLLSR, peptide start residue: 241) (UniProt P51956)”, for which the log2 fold change is -0.269.

With “COPA (peptide sequence: YAVTTGDHGIIR, peptide start residue: 551) (UniProt P53621)”, the log2 fold change was 0.235.

“LIMS1 (peptide sequence: LAETLGRK, peptide start residue: 318) (UniProt P48059)”: the log2 fold change turned out to be 0.323.

“PPP3CC (peptide sequence: QTIETATVEAVEAR, peptide start residue: 436) (UniProt P48454)”: the log2 fold change is -0.119.

On to “RAB28 (peptide sequence: LNKAEIEQSQR, peptide start residue: 182) (UniProt P51157)”, for which the log2 fold change stood at 0.544.

In the case of “PEX5 (peptide sequence: ELFLAAVR, peptide start residue: 473) (UniProt P50542)”, the log2 fold change was -0.0879.

“IDH3G (peptide sequence: LHSYATSIR, peptide start residue: 341) (UniProt P51553)”: the log2 fold change amounted to 0.236.

Regarding “DGKQ (peptide sequence: EGNLPSGAR, peptide start residue: 188) (UniProt P52824)”, the log2 fold change is -0.254.

On to “UniProt P51149 (peptide sequence: TSLMNQYVNKK, peptide start residue: 22)”, for which the log2 fold change came out at 0.361.

In the case of “RAB9A (peptide sequence: SDHLIQTDTVNLHR, peptide start residue: 179) (UniProt P51151)”, the log2 fold change was -0.0528.

Regarding “UniProt P52434 (peptide sequence: LHCESESFK, peptide start residue: 28)”, the log2 fold change stood at 0.141.

Turning to “CCNH (peptide sequence: LLEFCSVFKPAMPR, peptide start residue: 64) (UniProt P51946)”, the log2 fold change is -0.291.

As for “UniProt P53680 (peptide sequence: QLLMLQSLE, peptide start residue: 134)”, the log2 fold change came to 0.17.

For “RPL34 (peptide sequence: AFLIEEQKIVVK, peptide start residue: 94) (UniProt P49207)”, the log2 fold change was determined as 0.357.
